Among the data in publication PMC9848269, “Investigation of novel alkyl/benzyl (4-sulphamoylphenyl)carbamimidothioates as carbonic anhydrase inhibitors” (Journal of Enzyme Inhibition and Medicinal Chemistry, 2023) are Ki values, retold here.

The target of the assay is T1, StCA2 (Salmonella enterica, UniProt O30898).
T1 construct: gene mig-5; recombinant, obtained in-house; beta-class CA
T1 sequence (O30898 41-246): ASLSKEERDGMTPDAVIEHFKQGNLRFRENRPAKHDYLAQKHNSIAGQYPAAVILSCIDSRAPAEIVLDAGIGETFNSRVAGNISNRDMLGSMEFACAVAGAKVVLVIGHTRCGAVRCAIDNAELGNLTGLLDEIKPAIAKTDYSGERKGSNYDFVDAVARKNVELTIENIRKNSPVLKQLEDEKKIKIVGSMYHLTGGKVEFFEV
The arrangement: stopped-flow CO2 hydration assay, phenol red 557 nm, TRIS pH 8.4, recombinant beta-CA, 6 h preincubation. Conditions: inhibitor. Here is the method: An applied photophysics stopped-flow instrument has been used for assaying the CA-catalysed CO2 hydration activity. Phenol red (at a concentration of 0.2 mM) was used as indicator, working at the absorbance maximum of 557 nm, with 20 mM Hepes (pH 7.5) as buffer for α-CAs or 20 mM TRIS (pH 8.4) as buffer for β-CAs, and 20 mM Na2SO4 (for maintaining constant the ionic strength), following the initial rates of the CA-catalysed CO2 hydration reaction for a period of 10 – 100 s. The CO2 concentrations ranged from 1.7 to 17 mM for the determination of the kinetic parameters and inhibition constants. For each inhibitor, at least six traces of the initial 5 – 10% of the reaction have been used for determining the initial velocity. The uncatalysed rates were determined in the same manner and subtracted from the total observed rates. Stock solutions of inhibitor (0.1 mM) were prepared in distilled – deionised water, and dilutions up to 0.01 nM were done thereafter with the assay buffer. Inhibitor and enzyme solutions were preincubated together for 6 h at room temperature prior to assay in order to allow for the formation of the E – I complex. The inhibition constants were obtained by nonlinear least-squares methods using PRISM 3 and the Cheng–Prusoff equation, as reported earlier[12]^,[13]^,[20]^,[21], and represent the mean from at least three different determinations. […]

The term Ki denotes a dissociation constant, usually derived from enzyme kinetics or from competition with a known ligand. Take `CC(=O)Nc1nnc(S(N)(=O)=O)s1` [AAZ]: the Ki stood at 84 nM.
